For assay [1], the target named is T1, SFB-RNF8 (UniProt O76064).
T1 sequence: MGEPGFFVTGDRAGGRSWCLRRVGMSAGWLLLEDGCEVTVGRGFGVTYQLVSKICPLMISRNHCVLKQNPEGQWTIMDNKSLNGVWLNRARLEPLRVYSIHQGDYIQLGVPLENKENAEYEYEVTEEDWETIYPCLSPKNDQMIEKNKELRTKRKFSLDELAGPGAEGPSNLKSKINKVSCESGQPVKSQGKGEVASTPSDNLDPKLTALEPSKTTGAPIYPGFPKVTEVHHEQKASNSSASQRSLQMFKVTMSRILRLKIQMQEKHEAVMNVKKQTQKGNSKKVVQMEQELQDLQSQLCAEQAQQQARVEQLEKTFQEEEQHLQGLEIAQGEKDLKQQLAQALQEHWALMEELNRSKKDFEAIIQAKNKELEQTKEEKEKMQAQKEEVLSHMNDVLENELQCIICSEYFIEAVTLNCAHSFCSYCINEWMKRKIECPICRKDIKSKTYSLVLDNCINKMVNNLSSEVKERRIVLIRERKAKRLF
The assay can be described thus: co-IP.

Chains of the proteins cited; added tags and fusions are not shown.
UniProt Q7Z6Z7: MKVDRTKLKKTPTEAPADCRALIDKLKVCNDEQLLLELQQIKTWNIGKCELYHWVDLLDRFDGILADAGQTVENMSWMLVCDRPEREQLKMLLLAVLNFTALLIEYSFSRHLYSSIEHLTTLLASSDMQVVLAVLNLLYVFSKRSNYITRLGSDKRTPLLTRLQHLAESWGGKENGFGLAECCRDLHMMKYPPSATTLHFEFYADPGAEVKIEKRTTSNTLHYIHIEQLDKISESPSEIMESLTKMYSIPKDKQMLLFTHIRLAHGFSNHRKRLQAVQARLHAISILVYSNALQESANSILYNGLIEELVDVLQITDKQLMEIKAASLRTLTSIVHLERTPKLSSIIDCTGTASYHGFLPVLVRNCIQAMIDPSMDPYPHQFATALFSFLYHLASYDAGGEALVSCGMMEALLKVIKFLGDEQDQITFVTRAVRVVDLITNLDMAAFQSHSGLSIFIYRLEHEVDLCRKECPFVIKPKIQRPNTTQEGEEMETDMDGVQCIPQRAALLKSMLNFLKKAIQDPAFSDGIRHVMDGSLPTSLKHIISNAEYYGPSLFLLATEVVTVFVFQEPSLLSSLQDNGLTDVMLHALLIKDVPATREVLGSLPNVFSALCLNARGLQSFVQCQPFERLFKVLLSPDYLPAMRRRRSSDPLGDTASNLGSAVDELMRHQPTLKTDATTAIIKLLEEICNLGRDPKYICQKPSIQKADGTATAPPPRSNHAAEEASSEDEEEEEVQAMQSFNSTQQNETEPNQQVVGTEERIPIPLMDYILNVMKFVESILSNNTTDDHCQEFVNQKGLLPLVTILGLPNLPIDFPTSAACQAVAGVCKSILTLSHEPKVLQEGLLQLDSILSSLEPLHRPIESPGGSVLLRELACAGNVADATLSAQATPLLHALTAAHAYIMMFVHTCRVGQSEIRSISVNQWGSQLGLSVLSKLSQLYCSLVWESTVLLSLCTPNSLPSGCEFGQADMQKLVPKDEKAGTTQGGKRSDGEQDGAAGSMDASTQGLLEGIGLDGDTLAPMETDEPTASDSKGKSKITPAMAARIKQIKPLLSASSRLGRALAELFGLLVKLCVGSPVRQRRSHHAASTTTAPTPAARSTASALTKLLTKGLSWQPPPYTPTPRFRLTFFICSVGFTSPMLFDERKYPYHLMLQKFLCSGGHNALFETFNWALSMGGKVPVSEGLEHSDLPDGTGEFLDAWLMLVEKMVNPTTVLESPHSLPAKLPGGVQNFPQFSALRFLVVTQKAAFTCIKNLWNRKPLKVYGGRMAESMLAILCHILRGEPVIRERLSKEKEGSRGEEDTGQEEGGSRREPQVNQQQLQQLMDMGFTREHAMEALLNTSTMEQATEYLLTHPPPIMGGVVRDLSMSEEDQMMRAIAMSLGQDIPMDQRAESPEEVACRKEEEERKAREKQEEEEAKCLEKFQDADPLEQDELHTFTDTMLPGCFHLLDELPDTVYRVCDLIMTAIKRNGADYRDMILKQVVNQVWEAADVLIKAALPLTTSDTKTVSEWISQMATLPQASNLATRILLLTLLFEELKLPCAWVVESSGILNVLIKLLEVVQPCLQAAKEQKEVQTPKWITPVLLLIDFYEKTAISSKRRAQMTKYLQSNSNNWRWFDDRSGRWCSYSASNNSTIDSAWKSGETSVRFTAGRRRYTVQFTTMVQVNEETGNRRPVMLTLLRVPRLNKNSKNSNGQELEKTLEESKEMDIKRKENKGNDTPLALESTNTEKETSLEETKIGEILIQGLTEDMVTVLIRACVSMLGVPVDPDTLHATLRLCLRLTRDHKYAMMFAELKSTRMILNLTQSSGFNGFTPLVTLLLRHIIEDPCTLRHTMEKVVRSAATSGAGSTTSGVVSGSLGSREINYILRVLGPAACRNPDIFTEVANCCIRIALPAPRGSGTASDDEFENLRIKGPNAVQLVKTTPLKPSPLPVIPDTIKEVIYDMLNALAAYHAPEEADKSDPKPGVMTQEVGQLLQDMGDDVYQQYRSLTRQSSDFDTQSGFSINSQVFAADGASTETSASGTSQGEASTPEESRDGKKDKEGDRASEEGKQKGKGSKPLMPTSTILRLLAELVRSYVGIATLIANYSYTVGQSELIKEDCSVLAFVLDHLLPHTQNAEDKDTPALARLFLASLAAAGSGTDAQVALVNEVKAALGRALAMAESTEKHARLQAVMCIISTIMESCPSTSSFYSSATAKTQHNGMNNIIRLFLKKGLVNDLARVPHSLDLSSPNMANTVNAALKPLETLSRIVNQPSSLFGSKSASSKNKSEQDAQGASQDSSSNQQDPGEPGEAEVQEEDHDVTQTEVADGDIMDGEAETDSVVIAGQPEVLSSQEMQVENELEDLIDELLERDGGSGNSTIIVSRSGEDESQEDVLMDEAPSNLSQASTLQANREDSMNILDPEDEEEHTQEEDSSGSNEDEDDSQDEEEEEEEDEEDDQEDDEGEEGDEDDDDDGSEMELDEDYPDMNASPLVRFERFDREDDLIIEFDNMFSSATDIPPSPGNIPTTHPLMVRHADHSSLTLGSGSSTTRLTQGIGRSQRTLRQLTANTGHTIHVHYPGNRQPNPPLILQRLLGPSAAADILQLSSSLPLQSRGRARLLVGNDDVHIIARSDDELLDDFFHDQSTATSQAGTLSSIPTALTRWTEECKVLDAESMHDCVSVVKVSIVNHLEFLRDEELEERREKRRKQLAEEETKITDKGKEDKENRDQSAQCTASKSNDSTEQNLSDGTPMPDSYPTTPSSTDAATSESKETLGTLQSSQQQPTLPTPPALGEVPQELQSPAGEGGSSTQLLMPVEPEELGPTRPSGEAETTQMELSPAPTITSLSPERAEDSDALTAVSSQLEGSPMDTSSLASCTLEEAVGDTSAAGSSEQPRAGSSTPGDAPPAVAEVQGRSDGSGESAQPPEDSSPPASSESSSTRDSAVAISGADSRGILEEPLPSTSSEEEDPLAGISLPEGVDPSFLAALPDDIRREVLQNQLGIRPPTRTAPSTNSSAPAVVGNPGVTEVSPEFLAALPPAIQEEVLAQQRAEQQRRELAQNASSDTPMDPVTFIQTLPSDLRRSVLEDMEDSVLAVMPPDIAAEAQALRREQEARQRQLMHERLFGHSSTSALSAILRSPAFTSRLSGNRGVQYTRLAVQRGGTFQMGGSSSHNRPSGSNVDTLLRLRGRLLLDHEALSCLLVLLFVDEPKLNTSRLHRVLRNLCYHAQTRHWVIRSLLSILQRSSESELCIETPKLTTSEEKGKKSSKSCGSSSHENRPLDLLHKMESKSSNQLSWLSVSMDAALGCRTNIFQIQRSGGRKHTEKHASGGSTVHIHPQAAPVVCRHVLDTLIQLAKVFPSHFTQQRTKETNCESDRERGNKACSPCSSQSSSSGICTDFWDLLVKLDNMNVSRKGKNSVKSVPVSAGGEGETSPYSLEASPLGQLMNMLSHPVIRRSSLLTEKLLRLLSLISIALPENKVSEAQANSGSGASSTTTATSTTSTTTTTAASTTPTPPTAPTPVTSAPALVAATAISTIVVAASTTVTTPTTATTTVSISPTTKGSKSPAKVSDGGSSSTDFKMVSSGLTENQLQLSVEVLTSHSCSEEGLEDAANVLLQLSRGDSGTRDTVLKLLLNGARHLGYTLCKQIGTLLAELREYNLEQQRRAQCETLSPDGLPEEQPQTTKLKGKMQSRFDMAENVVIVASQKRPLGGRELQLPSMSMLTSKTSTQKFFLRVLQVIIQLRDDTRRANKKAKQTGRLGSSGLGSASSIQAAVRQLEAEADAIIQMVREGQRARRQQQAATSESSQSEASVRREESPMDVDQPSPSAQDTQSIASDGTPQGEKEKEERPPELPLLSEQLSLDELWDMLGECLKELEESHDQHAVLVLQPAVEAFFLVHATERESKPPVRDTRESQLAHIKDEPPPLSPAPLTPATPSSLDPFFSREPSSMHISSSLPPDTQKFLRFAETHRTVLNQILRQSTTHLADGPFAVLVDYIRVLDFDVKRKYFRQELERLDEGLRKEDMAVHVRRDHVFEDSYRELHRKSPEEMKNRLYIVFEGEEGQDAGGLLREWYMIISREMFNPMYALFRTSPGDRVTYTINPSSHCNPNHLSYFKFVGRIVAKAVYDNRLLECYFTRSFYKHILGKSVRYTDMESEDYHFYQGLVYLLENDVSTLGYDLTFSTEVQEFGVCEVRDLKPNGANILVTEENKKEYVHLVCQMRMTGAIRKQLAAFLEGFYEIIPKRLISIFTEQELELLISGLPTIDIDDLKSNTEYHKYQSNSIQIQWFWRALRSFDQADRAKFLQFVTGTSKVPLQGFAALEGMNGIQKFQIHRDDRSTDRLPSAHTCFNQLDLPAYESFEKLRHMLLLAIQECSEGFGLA

Assay [2] concerns the target Flag-HUWE1 WT (Wild-Type) (UniProt Q7Z6Z7). Briefly: co-IP.

Experimental findings from paper doi:10.1101/2022.11.02.514072 are described below.

No constants are given. Whether binding was seen depends on the method and setting. Binding seen in cells or lysates may run through a third protein. Some results given as binding are weak or reduced against the parent protein; the word gives no strength. Where a sequence is shown, tags or fusion partners need not be part of it.

B1: Myc-KDM4A (enzyme, UniProt O75164 1-1064)
chain: MASESETLNPSARIMTFYPTMEEFRNFSRYIAYIESQGAHRAGLAKVVPPKEWKPRASYDDIDDLVIPAPIQQLVTGQSGLFTQYNIQKKAMTVREFRKIANSDKYCTPRYSEFEELERKYWKNLTFNPPIYGADVNGTLYEKHVDEWNIGRLRTILDLVEKESGITIEGVNTPYLYFGMWKTSFAWHTEDMDLYSINYLHFGEPKSWYSVPPEHGKRLERLAKGFFPGSAQSCEAFLRHKMTLISPLMLKKYGIPFDKVTQEAGEFMITFPYGYHAGFNHGFNCAESTNFATRRWIEYGKQAVLCSCRKDMVKISMDVFVRKFQPERYKLWKAGKDNTVIDHTLPTPEAAEFLKESELPPRAGNEEECPEEDMEGVEDGEEGDLKTSLAKHRIGTKRHRVCLEIPQEVSQSELFPKEDLSSEQYEMTECPAALAPVRPTHSSVRQVEDGLTFPDYSDSTEVKFEELKNVKLEEEDEEEEQAAAALDLSVNPASVGGRLVFSGSKKKSSSSLGSGSSRDSISSDSETSEPLSCRAQGQTGVLTVHSYAKGDGRVTVGEPCTRKKGSAARSFSERELAEVADEYMFSLEENKKSKGRRQPLSKLPRHHPLVLQECVSDDETSEQLTPEEEAEETEAWAKPLSQLWQNRPPNFEAEKEFNETMAQQAPHCAVCMIFQTYHQVEFGGFNQNCGNASDLAPQKQRTKPLIPEMCFTSTGCSTDINLSTPYLEEDGTSILVSCKKCSVRVHASCYGVPPAKASEDWMCSRCSANALEEDCCLCSLRGGALQRANDDRWVHVSCAVAILEARFVNIAERSPVDVSKIPLPRFKLKCIFCKKRRKRTAGCCVQCSHGRCPTAFHVSCAQAAGVMMQPDDWPFVVFITCFRHKIPNLERAKGALQSITAGQKVISKHKNGRFYQCEVVRLTTETFYEVNFDDGSFSDNLYPEDIVSQDCLQFGPPAEGEVVQVRWTDGQVYGAKFVASHPIQMYQVEFEDGSQLVVKRDDVYTLDEELPKRVKSRLSVASDMRFNEIFTEKEVKQEKKRQRVINSRYREDYIEPALYRAIME
On to B1, for which, in assay [1], the binding entry is given as “binds”.

B2: ASCL1-Myc (protein, UniProt P50553 1-236)
chain: MESSAKMESGGAGQQPQPQPQQPFLPPAACFFATAAAAAAAAAAAAAQSAQQQQQQQQQQQQAPQLRPAADGQPSGGGHKSAPKQVKRQRSSSPELMRCKRRLNFSGFGYSLPQQQPAAVARRNERERNRVKLVNLGFATLREHVPNGAANKKMSKVETLRSAVEYIRALQQLLDEHDAVSAAFQAGVLSPTISPNYSNDLNSMAGSPVSSYSSDEGSYDPLSPEEQELLDFTNWF
In the case of B2, the binding result in assay [2] is on record as “binds”.
